# Test results published in PubChem BioAssay AID1487 (National Center for Advancing Translational Sciences (NCATS), 2009).
# The list shows a part of the results. The main result of the screen is listed elsewhere. These columns were measured beside it and carry no call. The list favours compounds with an active or inconclusive main result. The note in brackets gives the kind of curve behind each potency; many fits are weak.
# Assay: qHTS Assay for Modulators of Lamin A Splicing
# Settings: HeLa LMNA splicing GFP/RFP minigene ratio, 48 h
# Method in brief: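 Read-out is the ratio of GFP to DsRed2 object intensity, acquired by 488 nm laser-scanning cytometry on HeLa lamin A-EGFP minigene reporter cells. Compound incubation 48 hrs at 37 °C in Opti-MEM with 2% FBS; DMSO 0.5% final.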
# [1] = measured here: RFP viability control channel
# [2] = measured here: GFP splicing reporter channel
SMILES,AC50 [1],AC50 [2]
Cc1cccc(N2CCN(C(=O)c3ccc4ncsc4c3)CC2)c1C,"12.6 µM [rising, partial curve]",–
CC(C)Cn1c(SCC(=O)N2CCN(S(=O)(=O)c3ccccc3)CC2)nc2ccccc21,"25.1 µM [rising, partial curve, poor fit]",–
C/C(=N\NC(=O)c1cccc(Cl)c1)C1C(=O)c2ccccc2C1=O,"8.91 µM [rising, single point]",–
Cn1cc(CN2C[C@H]3CC[C@H]2C3)c(-c2ccccc2F)n1,"0.01 µM [falling, full curve, poor fit]",–
O=C(CN1CCN(c2ccc(Cl)cc2)CC1)Nc1ccc(F)cc1,"6.31 µM [rising, single point]","3.55 µM [rising, single point]"
CN1CCN(c2nc(-c3cccs3)nc3ccccc23)CC1,"12.6 µM [rising, single point]",–
CC(OC(=O)C1CCN(S(=O)(=O)c2ccc(Cl)cc2)CC1)C(=O)N1CCc2ccccc21 (configuration not stated),"12.6 µM [rising, single point]",–
COc1ccc(/C=C/C(=O)c2cc(Br)ccc2O)cc1OC,–,"0.0447 µM [falling, full curve, poor fit]"
COc1nc(NCCc2ccc(OC)c(OC)c2)nc(OC)n1,"3.55 µM [rising, partial curve, poor fit]","0.2 µM [rising, full curve, poor fit]"
Cc1nc(C)c(-c2csc(NCc3ccccc3)n2)s1,"35.5 µM [rising, single point]",–
CN(Cc1ccccc1F)c1nc(-c2cccs2)nc2ccccc12,"11.2 µM [rising, partial curve]","6.31 µM [rising, partial curve, poor fit]"
CCSc1ccccc1C(=O)n1nnc2ccccc21,"2.82 µM [falling, partial curve]","2.51 µM [falling, partial curve, poor fit]"
Cn1c(N2CCOCC2)c(/C=N/OC(=O)c2ccc(F)cc2)c2ccccc21,"7.08 µM [falling, full curve]","3.16 µM [falling, partial curve]"
C[C@@H]1NC(=O)c2cc([N+](=O)[O-])cc(I)c2OCC[C@@H](C(N)=O)NC(=O)[C@H](CCCCN)NC1=O,"20 µM [rising, single point]",–
O=C(c1ccccc1[N+](=O)[O-])N1CCC(Cc2ccccc2)CC1,–,"1.12 µM [falling, single point]"
CC(C)CCNC(=O)CCCOc1cc(=O)n(C)c2ccccc12,"22.4 µM [rising, single point]","35.5 µM [rising, single point]"
CCC1=NN(C(=O)c2ccc(C)cc2)C(O)(c2ccc(Br)cc2)C1 (configuration not stated),"35.5 µM [rising, single point]",–
COC(=O)c1[nH]c2ccccc2c1NS(=O)(=O)c1ccc(F)c(C)c1,"35.5 µM [rising, single point]",–
CCOc1ccc2nc(N(Cc3cccnc3)C(=O)c3cccs3)sc2c1,–,"35.5 µM [falling, partial curve, poor fit]"
COc1ccccc1NS(=O)(=O)c1cc(NC(=O)CCC2CCCC2)ccc1N1CCOCC1,"1 µM [rising, full curve, poor fit]",–
CCc1ccc(NC(=O)c2ccc(OC)c([N+](=O)[O-])c2)cc1,"35.5 µM [rising, single point]",–
O=C(Nc1nc(-c2ccc(Oc3ccccc3)cc2)cs1)C1=COCCO1,"14.1 µM [rising, partial curve]","11.2 µM [rising, partial curve]"
CCN(Cc1ccccc1)C(c1ccc(C)cc1)c1nnnn1C(C)(C)CC (configuration not stated),"31.6 µM [rising, single point]","14.1 µM [rising, single point]"
CCOC(=O)CN(C(=O)CSc1nnc(-c2cccc(OC)c2)o1)c1ccc(F)cc1,"15.8 µM [rising, partial curve]","7.94 µM [rising, partial curve]"
O=C(O)CCCCCNc1ncnc2ccc(Br)cc12,–,"0.0794 µM [rising, full curve, poor fit]"
O=C(Nc1nnc(C2=COCCO2)o1)c1ccc(Cl)cc1,"11.2 µM [rising, partial curve, poor fit]",–
COc1ccc(C)c2sc(NC(=O)c3ccc(S(=O)(=O)N4CCOCC4)cc3)nc12,"3.98 µM [falling, full curve, poor fit]",–

# A second format for 3 compounds above.
SMILES	AC50 [1]	AC50 [2]
Cc1nc(C)c(-c2csc(NCc3ccccc3)n2)s1	35.5 µM [rising, single point]	–
CCSc1ccccc1C(=O)n1nnc2ccccc21	2.82 µM [falling, partial curve]	2.51 µM [falling, partial curve, poor fit]
CCN(Cc1ccccc1)C(c1ccc(C)cc1)c1nnnn1C(C)(C)CC (configuration not stated)	31.6 µM [rising, single point]	14.1 µM [rising, single point]

# More compounds follow:

SMILES,AC50 [1],AC50 [2]
Cc1ccc(NC(=O)c2ccc(Cn3cc(Br)cn3)o2)cc1,"12.6 µM [rising, partial curve]","14.1 µM [rising, partial curve]"
CN[C@H]1[C@@H](O[C@@H]2[C@H](O[C@@H]3[C@@H](O)[C@@H](O)[C@@H](N=C(N)N)[C@@H](O)[C@@H]3N=C(N)N)O[C@H](C)[C@@]2(O)C=O)O[C@@H](CO)[C@@H](O)[C@H]1O,"0.00891 µM [falling, full curve]","0.00398 µM [falling, full curve]"
N#C/C(=C/c1ccc(Sc2nc3ccccc3[nH]2)o1)c1ccccc1F,"10 µM [rising, partial curve]",–
CC(=O)c1ccc(OC2OCCOC2Oc2ccc(C(C)=O)cc2)cc1 (configuration not stated),"15.8 µM [rising, single point]",–
CC(C)c1ccc(/C=N/Nc2cc(N3CCOCC3)nc(N3CCOCC3)n2)cc1,"10 µM [rising, partial curve]","5.01 µM [rising, partial curve]"
O=C(Nc1nc(-c2ccc3c(c2)OCO3)cs1)c1ccncc1,"3.55 µM [rising, full curve]","8.91 µM [rising, partial curve]"
COc1ccc(-c2csc(-c3cccnc3)n2)cc1C,"0.0891 µM [falling, full curve]",–
CC1=NNC(=O)/C1=C\c1cn(-c2ccccc2)nc1-c1ccc(Cl)cc1,"3.16 µM [falling, full curve]","3.16 µM [falling, full curve]"
O=[N+]([O-])c1cc(Oc2cccnc2)cc([N+](=O)[O-])c1,"35.5 µM [rising, single point]",–
Cc1ccc(/C=N/NC(=O)CN(Cc2ccccc2)S(=O)(=O)c2ccc3c(c2)OCCO3)cc1,"35.5 µM [rising, single point]",–
O=c1oc2ccccc2c(N2CCCCC2)c1CN1CCCCC1,"35.5 µM [rising, single point]",–
COc1cccc(CNC(=O)c2sc3nc[nH]c(=O)c3c2C)c1,–,"0.02 µM [falling, full curve, poor fit]"
Cc1cc(C)cc(NC(=O)CSc2nc(N)c(NC(=O)c3cccs3)c(=O)[nH]2)c1,"10 µM [falling, single point]","7.94 µM [falling, partial curve]"
N#C/C(=C\c1ccco1)Sc1nc2ccccc2s1,–,"35.5 µM [falling, single point]"
N=c1ccn(Cc2ccccc2Cl)cc1,"14.1 µM [rising, single point]",–
CCN(CC)c1ccc(/C=C(\C#N)c2ccccn2)cc1,"31.6 µM [rising, single point]","15.8 µM [rising, single point]"
Cc1cc(N2CCOCC2)n2nc(C)c(-c3ccccc3)c2n1,"11.2 µM [rising, single point]","14.1 µM [rising, single point]"
Cc1ccccc1NC(=O)c1cc(C(=O)c2cc(Cl)ccc2O)cn(-c2ccccc2C)c1=O,"17.8 µM [rising, partial curve]",–
O=C1CCNc2cc3ccccc3cc21,"35.5 µM [falling, single point]","25.1 µM [falling, single point]"
Cc1ccc(N2CCN(C(=O)c3c(C)oc4ncn(C)c(=O)c34)CC2)c(C)c1,–,"0.00631 µM [rising, full curve, poor fit]"
COCCN(CCOC)c1ncc(Cl)c(C(=O)c2c(C)cc3ccccn23)n1,"15.8 µM [rising, single point]","7.94 µM [rising, partial curve, poor fit]"
CCN(CC)c1ccc(NC(=O)COCc2cc(-c3ccc4c(c3)OCO4)on2)c(C)c1,–,"5.01 µM [falling, single point]"
CCOC(=O)CCc1nn(C)c(=O)c2ccccc12,"35.5 µM [rising, single point]","35.5 µM [rising, single point]"
CC(N=Cc1cccc(O)c1O)c1ccccc1 (configuration not stated),–,"10 µM [rising, partial curve]"
O=C(/C=C/c1ccc2c(c1)OCO2)Nc1nc(-c2ccc(F)cc2F)cs1,"7.08 µM [rising, partial curve]","3.16 µM [rising, full curve]"
CC(=O)Oc1ccc2ccccc2c1C(NC(=O)Cc1ccccc1)c1ccccc1Cl (configuration not stated),"35.5 µM [falling, partial curve, poor fit]","35.5 µM [falling, partial curve, poor fit]"
CN(/N=C/c1ccc(O)cc1O)c1nc(-c2ccccc2)cc(-c2ccccc2)n1,"12.6 µM [falling, single point]","22.4 µM [falling, partial curve]"
